Where a name gives a salt, the structure may show the parent alone. ± gives the standard deviation of the averaged measurements. This is one part of the list. Plates or batches differ in their baseline, so values are only roughly comparable.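 The cells are a mouse kidney inner medullary collecting duct line, silenced either for the ciliary gene Rpgrip1l or with a non-targeting control siRNA.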
Assays:
mIMCD3 [1] = test: robust z score of cell number vs plate controls; higher = more cells (less cytotoxic); details: 10 µM, 48 h
mIMCD3 [2] = test: robust z score of cilia incidence (% cells with single cilium) vs plate controls; higher = more ciliated cells; details: 10 µM; 48 h; siRNA: siScr
mIMCD3 [3] = test: robust z score of cilia incidence (% cells with single cilium) vs plate controls; higher = more ciliated cells (rescue of cilia loss); details: 10 µM; 48 h; siRNA: siRpgrip1l

| Compound | robust z score of cell number (mIMCD3 [1]; siRNA: siRpgrip1l) | robust z score of cell number (mIMCD3 [1]; siRNA: siScr) | robust z score of cilia incidence (mIMCD3 [2]) | robust z score of cilia incidence (mIMCD3 [3]) |
| --- | --- | --- | --- | --- |
| NS(=O)(=O)c1cccc2c1c([N+](=O)[O-])cc1nc(O)c(O)nc12 | -49.4 ± 78 | -3.42 ± 6.5 | 0.853 ± 2.1 | -25.9 ± 32 |
| CCCCCCN(CCCCCC)C(=O)Cc1c(-c2ccc(F)cc2)[nH]c2ccccc12 | -94.4 ± 74 | -119 ± 100 | -9.57 ± 1.5 | -29.4 ± 4.8 |
| CCCCC/N=c1\ccn(Cc2ccccc2)c2ccccc12 | -259 ± 190 | -33.9 ± 7.6 | -12.7 ± 10 | -11.6 ± 5.5 |
| N[C@H](C(=O)O)c1cc(O)cc(O)c1 | -2.05 ± 3.8 | -1.76 ± 1.2 | 1.26 ± 1.6 | -5.18 ± 1.6 |
| CCS(=O)(=O)N1CCC[C@@H]2CN3CCc4cc(OC)ccc4[C@@H]3C[C@@H]21 | -6.45 ± 1.2 | -5.14 ± 2.4 | -13.1 ± 4.4 | -15.9 ± 3.4 |
| Cc1ccc(S(=O)(=O)/C=C/C#N)cc1 | -52.6 ± 51 | -28 ± 22 | -13.2 ± 8 | -19.5 ± 12 |
| N#C/C(=C\c1ccc(O)c(O)c1)C(=O)NCCCc1ccccc1 | -48.9 ± 64 | -8.37 ± 5.7 | -12 ± 18 | -9.64 ± 7.3 |
| CC(C)NCC(O)COc1ccccc1-n1cccc1 (stereo unspecified) [Isamoltane hemifumarate] | -4.83 ± 3 | -5.16 ± 1.1 | -5.73 ± 0.43 | -7.48 ± 3.3 |
| CCOC(=O)C1=C(N)Oc2ccc(Br)cc2C1C(C#N)C(=O)OCC (stereo unspecified) | -52.3 ± 61 | -0.21 ± 0.88 | 1.37 ± 0.35 | -7.88 ± 1.9 |
| Cn1cc(C2=C(c3cn(CCCSC(=N)N)c4ccccc34)C(=O)NC2=O)c2ccccc21 [Ro 31-8220 mesylate] | -38.9 ± 24 | -54 ± 28 | -22.7 ± 12 | -41 ± 3.6 |
| O=C(O)COc1cccc(-c2ocnc2-c2nc(-c3ccccc3)c(-c3ccccc3)o2)c1 | -179 ± 200 | -41.6 ± 9.6 | -5.92 ± 4.2 | -231 ± 140 |
| CCN(CC)CCOC(=O)c1cc(Cl)c(N)cc1OC [SDZ 205-557 hydrochloride] | -2.19 ± 2.8 | 1.31 ± 1.8 | -0.101 ± 1.1 | -14.5 ± 15 |
| CCCCCCCCCCCCCCCCn1cc[n+](Cc2ccccc2)c1C | -30.3 ± 29 | -12.9 ± 12 | -21.2 ± 13 | -25.9 ± 6.3 |
| COC(=O)[C@H]1[C@H]2C[C@H]3c4[nH]c5ccccc5c4CCN3C[C@H]2CC[C@@H]1O [Rauwolscine hydrochloride] | -3.95 ± 0.7 | -3.05 ± 5.3 | -2.3 ± 6.3 | -6.55 ± 1.9 |
| O=c1cc(-c2ccc(O)cc2)oc2cc(O)cc(O)c12 [Apigenin] | -217 ± 170 | -29.3 ± 7.3 | -7.64 ± 13 | -15.5 ± 4.6 |
| O=C1CCc2c(ccc3ccccc23)O1 [Splitomicin] | -20.9 ± 27 | 4.11 ± 5.4 | 0.622 ± 0.93 | -179 ± 110 |
| COc1ccc([C@@H]2CNC(=O)C2)cc1OC1CCCC1 [(R)-(-)-Rolipram] | -37.1 ± 33 | 1.68 ± 1.4 | -0.532 ± 3.3 | -7.07 ± 2 |

Single values from above:
In robust z score of cilia incidence (mIMCD3 [2]), Cc1ccc(S(=O)(=O)/C=C/C#N)cc1 has the entry -13.2 ± 8
In robust z score of cilia incidence (mIMCD3 [3]), COC(=O)[C@H]1[C@H]2C[C@H]3c4[nH]c5ccccc5c4CCN3C[C@H]2CC[C@@H]1O [Rauwolscine hydrochloride] has the entry -6.55 ± 1.9

More records.

| Compound | robust z score of cell number (mIMCD3 [1]; siRNA: siRpgrip1l) | robust z score of cell number (mIMCD3 [1]; siRNA: siScr) | robust z score of cilia incidence (mIMCD3 [2]) | robust z score of cilia incidence (mIMCD3 [3]) |
| --- | --- | --- | --- | --- |
| CC1=C(/C=C/C(C)=C/C=C/C(C)=C/C(=O)O)C(C)(C)CCC1 [Retinoic acid] | -4.13 ± 6.9 | -0.116 ± 0.34 | -1.43 ± 2.5 | -9.13 ± 3.9 |
| CCN(c1ccccc1)c1cc(=NC)n(C)c(C)n1 | -18.5 ± 1.2 | -18.2 ± 9.7 | -23.2 ± 7 | -19.8 ± 2.1 |
| COc1cccc(/C=N/N=C/c2cccc(OC)c2)c1 | 0.444 ± 1.2 | 0.976 ± 4.4 | 6.34 ± 12 | -15.2 ± 8.4 |
| COC(=O)/C=C/c1cc(O)ccc1O [Methyl 2,5-dihydroxycinnamate] | -85.1 ± 60 | -124 ± 110 | -8.86 ± 0.44 | -36.6 ± 1.2 |
| Oc1ccc(Nc2nc(-c3ccc(Cl)cc3)cs2)cc1 | -40.6 ± 26 | -54.6 ± 29 | -18.6 ± 4.7 | -33.3 ± 7.2 |
| N#Cc1cc2nc(O)c(O)nc2cc1[N+](=O)[O-] [CNQX disodium salt] | -8.82 ± 9.6 | -2.69 ± 6.8 | 0.201 ± 0.23 | -3.96 ± 0.58 |
| CN1CCN2c3ccccc3Cc3ccccc3C2C1 (stereo unspecified) [Mianserin hydrochloride] | -5.61 ± 2.5 | -4.83 ± 3.3 | -0.737 ± 2.3 | -6.81 ± 3.2 |
| CN(C(=O)c1c(O)c2ccccc2n(C)c1=O)c1ccccc1 [Linomide] | -31.1 ± 41 | 2.41 ± 3 | 2.47 ± 3.5 | -154 ± 130 |
| CCCCCCCCCCCCCCCC(=O)NCCO [Palmitoylethanolamide] | -3.48 ± 1.3 | -0.0934 ± 2.1 | -0.744 ± 4 | -8.7 ± 2.5 |
| CC(O)(C(=O)Nc1ccc(S(=O)(=O)c2ccccc2)cc1)C(F)(F)F (stereo unspecified) | -13.2 ± 2.9 | -10.4 ± 4.2 | -10.3 ± 3.4 | -15.9 ± 5.7 |
| COc1ccc2[nH]c([S+]([O-])Cc3ncc(C)c(OC)c3C)nc2c1 (stereo unspecified) [Omeprazole] | -8.45 ± 5 | -18 ± 2.2 | 0.346 ± 0.97 | -16.6 ± 3.9 |
| NCCc1c[nH]cn1 [Histamine dihydrochloride] | -23.7 ± 17 | -28.61 ± 0.1 | -20.2 ± 3.4 | -16.5 ± 5.9 |
| Cc1c[nH]c(=O)n(CCCN2CCN(c3ccccc3OCC(F)(F)F)CC2)c1=O | -23.9 ± 17 | -2.94 ± 2 | 1.58 ± 5.5 | -9.5 ± 1.2 |
| c1ccc(CN(CC2=NCCN2)c2ccccc2)cc1 [Antazoline hydrochloride] | -3.24 ± 2.2 | -3.08 ± 2.2 | -2.66 ± 0.53 | -7.04 ± 1.4 |
| O=C1CC2(CCCC2)CC(=O)N1CCCCNCC1COc2ccccc2O1 (stereo unspecified) | -33.9 ± 24 | -33.9 ± 29 | -10.6 ± 3.8 | -24.9 ± 14 |
| C1CCC(N=C(NC23CC4CC(CC(C4)C2)C3)N2CCOCC2)CC1 | -11.6 ± 3.4 | -22.2 ± 16 | -17.4 ± 1.8 | -44.5 ± 19 |
| O=C1c2ccccc2S(=O)(=O)N1CCCCN1CCN(c2ncccn2)CC1 [Ipsapirone] | -20.2 ± 15 | -25.8 ± 2.5 | -19.8 ± 0.58 | -14.3 ± 4.4 |

— the supplement of paper PMC12009310
